Measured values reported in patent US20080312250A1, “Combination Comprising a Bcrp Inhibitor and 4- (4-Methylpiperazin-1-Ylmethyl)-N-[4-Methyl-3- (4-Pyridin-3-Yl) Pyrimidin-2-Ylamino) Phenyl] -Benzamide” (THE NETHERLANDS CANCER INSTITUTE, priority 2005, published 2008).
At least one compound was matched to its structure with a doubt left.

Target: T1, Bcrp1 (Mus musculus, UniProt Q7TMS5)
T1 construct: expressed in transfected cells; host or cells: MDCKII (Madin-Darby canine kidney strain II) cells, stably transfected
T1 sequence (Q7TMS5 1-657): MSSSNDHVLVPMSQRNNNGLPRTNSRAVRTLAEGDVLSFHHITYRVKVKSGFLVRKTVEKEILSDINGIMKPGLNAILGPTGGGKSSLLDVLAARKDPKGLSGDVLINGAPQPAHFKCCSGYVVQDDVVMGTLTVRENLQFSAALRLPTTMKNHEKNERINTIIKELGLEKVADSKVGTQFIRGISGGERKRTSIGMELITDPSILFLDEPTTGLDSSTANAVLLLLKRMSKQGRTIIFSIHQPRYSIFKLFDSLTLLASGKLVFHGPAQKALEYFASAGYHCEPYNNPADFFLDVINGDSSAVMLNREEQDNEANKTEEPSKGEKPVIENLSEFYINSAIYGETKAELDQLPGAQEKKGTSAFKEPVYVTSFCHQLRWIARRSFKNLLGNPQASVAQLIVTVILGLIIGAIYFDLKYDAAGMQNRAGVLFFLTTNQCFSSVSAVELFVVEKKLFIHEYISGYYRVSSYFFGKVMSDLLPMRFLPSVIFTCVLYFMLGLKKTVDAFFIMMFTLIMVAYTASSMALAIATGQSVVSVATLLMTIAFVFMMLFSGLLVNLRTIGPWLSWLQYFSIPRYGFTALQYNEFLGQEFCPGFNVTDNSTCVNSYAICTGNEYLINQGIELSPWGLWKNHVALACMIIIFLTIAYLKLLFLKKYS
Assay: Effect of pantoprazole and elacridar on Bcrp1-mediated transport of Compound I in MDCKII transfected cells
Assay type: in vitro ADME, murine
Conditions: 1 μM Compound I, zosuquidar 5 μM added for pantoprazole, data not shown
Method: Transport across MDCKII monolayers. The MDCKII (Madin-Darby canine kidney strain II) cells are cultured in Dulbecco's Modified Eagle's Medium supplemented with 10% fetal calf serum and 100 units penicillin/streptomycin per ml. Cells are grown at 37° C. with 5% CO2 under humidifying conditions. […] Animals. […] Mice are housed and handled according to institutional guidelines complying with Dutch legislation.
In the experiments in which the effect of pantoprazole is studied, the P-gp inhibitor zosuquidar (5 μM) is added to exclude any contribution of P-gp.

Compound: COc1ccnc(C[S+]([O-])c2nc3ccc(OC(F)F)cc3[nH]2)c1OC (stereo not shown) [pantoprazole]
- effect on Bcrp1-mediated transport of Compound I: inhibit
